In paper PMC3166142:
The exact form of at least one protein or probe is not confirmed. For some assays here: Weaker means in comparison with the reference protein, sequence or condition of that experiment. For some assays here: Results from cells or extracts need not show a direct contact.

Protein sequences, listed by entry. Tags and fused reporters are not part of them.
UniProt Q9BXW9, whole entry K561R: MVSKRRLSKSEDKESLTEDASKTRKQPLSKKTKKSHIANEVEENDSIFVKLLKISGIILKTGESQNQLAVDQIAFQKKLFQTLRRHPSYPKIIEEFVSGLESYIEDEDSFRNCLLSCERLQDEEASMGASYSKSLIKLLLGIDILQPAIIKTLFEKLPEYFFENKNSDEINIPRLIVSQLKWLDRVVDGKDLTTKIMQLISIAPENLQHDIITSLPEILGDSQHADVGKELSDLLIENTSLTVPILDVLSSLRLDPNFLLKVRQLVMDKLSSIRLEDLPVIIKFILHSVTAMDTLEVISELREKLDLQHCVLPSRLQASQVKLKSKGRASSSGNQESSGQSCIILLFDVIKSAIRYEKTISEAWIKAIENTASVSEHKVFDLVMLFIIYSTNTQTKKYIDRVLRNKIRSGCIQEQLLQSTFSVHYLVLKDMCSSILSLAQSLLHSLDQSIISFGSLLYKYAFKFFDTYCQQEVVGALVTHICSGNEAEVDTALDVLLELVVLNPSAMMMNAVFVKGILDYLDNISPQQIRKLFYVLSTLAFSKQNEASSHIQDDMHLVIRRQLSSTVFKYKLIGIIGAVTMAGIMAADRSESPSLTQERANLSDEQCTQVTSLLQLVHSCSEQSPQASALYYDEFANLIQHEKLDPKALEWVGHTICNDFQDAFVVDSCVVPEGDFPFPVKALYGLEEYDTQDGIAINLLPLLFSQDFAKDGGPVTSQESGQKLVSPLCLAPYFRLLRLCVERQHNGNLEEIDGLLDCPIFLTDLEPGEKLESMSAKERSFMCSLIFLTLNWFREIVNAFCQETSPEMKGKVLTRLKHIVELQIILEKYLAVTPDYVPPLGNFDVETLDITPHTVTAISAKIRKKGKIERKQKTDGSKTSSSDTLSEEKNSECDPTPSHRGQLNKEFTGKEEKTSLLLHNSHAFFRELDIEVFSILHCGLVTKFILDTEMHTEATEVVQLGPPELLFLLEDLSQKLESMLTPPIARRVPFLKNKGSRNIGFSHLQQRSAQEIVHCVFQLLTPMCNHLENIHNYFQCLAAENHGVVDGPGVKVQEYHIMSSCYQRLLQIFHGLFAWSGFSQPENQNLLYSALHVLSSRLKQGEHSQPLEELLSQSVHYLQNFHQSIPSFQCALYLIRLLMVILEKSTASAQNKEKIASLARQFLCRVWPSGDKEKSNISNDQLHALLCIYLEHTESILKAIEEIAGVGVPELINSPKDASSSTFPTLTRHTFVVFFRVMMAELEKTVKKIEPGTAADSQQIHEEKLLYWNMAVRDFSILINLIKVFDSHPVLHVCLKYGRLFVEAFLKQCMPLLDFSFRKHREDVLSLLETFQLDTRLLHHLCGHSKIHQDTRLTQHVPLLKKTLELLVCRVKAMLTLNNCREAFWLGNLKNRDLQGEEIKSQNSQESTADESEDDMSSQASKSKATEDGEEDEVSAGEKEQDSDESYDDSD

Key:
Experiment in all cases: EMSA
FANCD2 (Homo sapiens) = FANCD2 (Homo sapiens) (UniProt Q9BXW9); conditions: 200 ng protein; 20 mM HEPES pH 7.6, 5 mM EDTA, 1 mM DTT, 150 mM KCl, 50 mM (NH4)2SO4, 1% Tween-20; 20 min, room temperature; native 4% PAGE; recombinant …; protein details: His6 removed by thrombin; label: 32P
Flag-FANCD2 WT = Flag-FANCD2 WT (UniProt Q9BXW9); conditions: 2 ug nuclear extract (Methods print 2 mg); 20 mM HEPES pH 7.6, 5 mM EDTA, 1 mM DTT, 150 mM KCl, 50 mM (NH4)2SO4, 1% Tween-20; 20 min, room temperature; native 4% PAGE; protein in an extract; protein details: Flag; label: 32P
Flag-FANCD2KR K561R = Flag-FANCD2KR K561R (UniProt Q9BXW9); conditions: 2 ug nuclear extract, similar to WT; 20 mM HEPES pH 7.6, 5 mM EDTA, 1 mM DTT, 150 mM KCl, 50 mM (NH4)2SO4, 1% Tween-20; 20 min, room temperature; native 4% …; protein in an extract; protein details: Flag; label: 32P

| Sequence | binding result (FANCD2 (Homo sapiens)) | binding result (Flag-FANCD2 WT) | binding result (Flag-FANCD2KR K561R) |
| --- | --- | --- | --- |
| GAGGATCCGGACCCCCCCTTAA (double strand) [kB1 mut] | binds more weakly | – | – |
| GGGTCTGTGAATTCCCGGGGGT (double strand) [kB2] | binds more weakly | – | – |
| GCTCATGGGTTTCTCCACCAAG (double strand) [k3] | binds more weakly | – | – |
| GAGTATGGGGACCCCCCCTTAA (double strand) [kB1] | – | binds | binds |
